Measurements taken from publication PMC8115640.
Positions count from the first letter of the chain named. These are yes or no findings as the source states them, for the method shown. Binding calls can cover weak binding; strength is not graded here. For some assays here: Where a sequence is shown, tags or fusion partners need not be part of it. For some assays here: In cells and extracts the contact can be indirect.

Chains of the proteins cited; added tags and fusions are not shown. Lines headed by an entry give the natural chain unless they say otherwise; changes in a name come on top.
UniProt Q8VYS8: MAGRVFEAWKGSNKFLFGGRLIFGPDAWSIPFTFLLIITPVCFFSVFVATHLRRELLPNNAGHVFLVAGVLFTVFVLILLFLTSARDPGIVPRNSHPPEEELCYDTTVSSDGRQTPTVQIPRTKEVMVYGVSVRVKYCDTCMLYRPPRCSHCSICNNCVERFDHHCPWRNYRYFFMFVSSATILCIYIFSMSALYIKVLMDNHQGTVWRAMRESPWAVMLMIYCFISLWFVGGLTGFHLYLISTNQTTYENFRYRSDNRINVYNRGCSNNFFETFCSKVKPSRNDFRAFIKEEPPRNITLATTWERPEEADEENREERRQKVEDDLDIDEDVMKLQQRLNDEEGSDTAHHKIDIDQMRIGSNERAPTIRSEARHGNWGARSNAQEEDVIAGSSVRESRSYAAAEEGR
UniProt Q9M306: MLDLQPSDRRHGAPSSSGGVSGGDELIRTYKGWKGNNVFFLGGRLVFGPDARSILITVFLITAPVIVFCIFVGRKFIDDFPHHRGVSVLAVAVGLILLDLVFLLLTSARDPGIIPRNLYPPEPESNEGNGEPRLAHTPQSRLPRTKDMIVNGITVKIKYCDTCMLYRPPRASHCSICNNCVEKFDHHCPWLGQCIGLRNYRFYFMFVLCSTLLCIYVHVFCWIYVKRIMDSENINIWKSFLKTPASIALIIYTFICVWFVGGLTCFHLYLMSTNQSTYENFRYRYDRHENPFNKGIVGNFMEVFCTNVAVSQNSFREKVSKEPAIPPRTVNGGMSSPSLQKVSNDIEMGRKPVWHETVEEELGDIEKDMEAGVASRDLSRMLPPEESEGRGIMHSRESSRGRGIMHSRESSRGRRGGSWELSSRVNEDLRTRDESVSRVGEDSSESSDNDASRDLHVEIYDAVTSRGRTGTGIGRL

Tests used:
[1] = target: T1, GST-P2K1-KD (P2K1 kinase domain, C-terminal cytoplasmic domain) (Arabidopsis thaliana) (UniProt Q9LSR8); test: pull-down; GST-His pull-down: 5 μg GST and His recombinant proteins with 25 μl Glutathione Resin beads, 25 mM Tris-HCl pH 7.5, 100 mM NaCl, 1 mM DTT, 2 h at 4 °C; eluted with GSH; blots with anti-His and anti-GST; both purified
T1 sequence: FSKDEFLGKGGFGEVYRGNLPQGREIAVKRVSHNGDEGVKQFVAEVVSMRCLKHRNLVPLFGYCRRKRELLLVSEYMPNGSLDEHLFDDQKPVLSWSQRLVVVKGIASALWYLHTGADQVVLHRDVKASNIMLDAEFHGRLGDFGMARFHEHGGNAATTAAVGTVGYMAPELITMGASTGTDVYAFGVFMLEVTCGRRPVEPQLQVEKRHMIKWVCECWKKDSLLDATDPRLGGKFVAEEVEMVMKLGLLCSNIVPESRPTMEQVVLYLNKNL

[2] = target: T2, GST-P2K1-KD-1 (kinase inactive form of the P2K1 kinase domain) (Arabidopsis thaliana) (UniProt Q9LSR8); test: as above
T2 sequence: T1 sequence with D229N

[3] = target: T3, P2K1 (DORN1, LecRK-I.9; extracellular ATP receptor), fused to the N-terminal fragment of firefly luciferase (Arabidopsis thaliana) (UniProt Q9LSR8); test: split reporter; split-luciferase complementation imaging in N. benthamiana leaves, Agrobacterium infiltration, 48 h, 1 mM D-luciferin; mock or 500 uM ATPγS added, panels at 15 min and 1 h; empty vectors as controls
T3 sequence: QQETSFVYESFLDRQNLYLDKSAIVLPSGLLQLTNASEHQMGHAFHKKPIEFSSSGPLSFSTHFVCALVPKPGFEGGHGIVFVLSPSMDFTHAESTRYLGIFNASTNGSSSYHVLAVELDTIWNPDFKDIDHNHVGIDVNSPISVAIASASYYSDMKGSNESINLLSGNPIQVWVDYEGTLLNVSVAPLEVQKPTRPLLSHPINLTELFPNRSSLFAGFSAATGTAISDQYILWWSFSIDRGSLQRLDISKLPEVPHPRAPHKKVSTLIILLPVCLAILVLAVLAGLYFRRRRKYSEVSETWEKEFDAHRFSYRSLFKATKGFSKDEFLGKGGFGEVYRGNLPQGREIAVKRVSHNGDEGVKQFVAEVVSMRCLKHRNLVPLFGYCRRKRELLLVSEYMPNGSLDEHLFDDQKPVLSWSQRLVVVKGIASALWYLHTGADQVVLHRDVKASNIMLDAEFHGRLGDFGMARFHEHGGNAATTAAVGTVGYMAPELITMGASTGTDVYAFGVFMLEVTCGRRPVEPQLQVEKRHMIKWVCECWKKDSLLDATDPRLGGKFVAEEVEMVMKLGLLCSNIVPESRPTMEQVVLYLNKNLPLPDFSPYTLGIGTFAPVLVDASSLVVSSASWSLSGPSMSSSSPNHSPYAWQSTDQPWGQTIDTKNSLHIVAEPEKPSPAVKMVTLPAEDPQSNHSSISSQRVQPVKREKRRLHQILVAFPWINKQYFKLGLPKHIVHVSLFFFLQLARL

[4] = target: T4, P2K1-HA (Arabidopsis thaliana) (UniProt Q9LSR8); test: co-IP; constructs transiently co-expressed in Arabidopsis wild-type protoplasts; extract in 50 mM Tris pH 7.5, 150 mM NaCl, 0.5% Triton-X 100; anti-Myc or anti-HA agarose; blots with anti-HA-HRP and anti-Myc-HRP
T4 sequence: T3 sequence

[5] = target: T5, P2K1-YFP^N (Arabidopsis thaliana) (UniProt Q9LSR8); test: split reporter; BiFC with split YFP at the C-termini, co-transformed Arabidopsis protoplasts, 23 °C overnight in the dark; FM4-64 as plasma membrane stain
T5 sequence: T3 sequence

[6] = target: PAT9-YFP^C (Arabidopsis thaliana) (UniProt Q8VYS8); test: as above

Row | Substance | binding [1] | binding [2] | other results
1 | His-PAT5-C (C-terminal cytoplasmic domain of PAT5) (from UniProt Q9M306) (domain or fragment) | binds | binds | –
2 | His-PAT5-CRD (DHHC-Cysteine rich domain of PAT5) (from UniProt Q9M306) (domain or fragment) | binds | binds | –
3 | His-PAT9-C (C-terminal cytoplasmic domain of PAT9) (from UniProt Q8VYS8) (domain or fragment) | binds | binds | –
4 | His-PAT9-CRD (DHHC-Cysteine rich domain of PAT9) (from UniProt Q8VYS8) (domain or fragment) | binds | binds | –
5 | PAT5 (protein S-acyltransferase 5), fused to the C-terminal fragment of firefly luciferase (from UniProt Q9M306) (enzyme) | – | – | binding [3]: binds
6 | PAT5-Myc (from UniProt Q9M306) (enzyme) | – | – | binding [4]: binds
7 | PAT5-YFP^C (from UniProt Q9M306) (enzyme) | – | – | binding [5]: binds; binding [6]: binds
8 | PAT9-Myc (from UniProt Q8VYS8) (enzyme) | – | – | binding [4]: binds
9 | PAT9-YFP^C (from UniProt Q8VYS8) (enzyme) | – | – | binding [5]: binds
